No constants are given. Whether binding was seen depends on the method and setting. In cells and extracts the contact can be indirect. Some binding calls cover weakened binding; strength is not graded here. For some of these results: Where a sequence is shown, tags or fusion partners need not be part of it.
Experiments:
[1] = biological target: endogenous Beclin 1 of HEK 293 / HEK 293T cells (human) (UniProt Q14457); assay: co-IP with anti-GFP antibody from transfected HEK 293T cells; anti-Beclin 1 blot of endogenous Beclin 1
[2] = biological target: endogenous Beclin 1 of HEK 293 / HEK 293T cells (human) (UniProt Q14457); assay: co-IP with anti-GFP antibody from transfected HEK 293T cells; anti-Beclin 1 blot
[3] = biological target: T1, Rubicon-EGFP (full-length mouse Rubicon tagged with EGFP at the C-terminus) (mouse) (UniProt Q80U62); assay: co-IP with anti-GFP antibody from co-transfected HEK 293T cells; anti-FLAG blot
T1 sequence: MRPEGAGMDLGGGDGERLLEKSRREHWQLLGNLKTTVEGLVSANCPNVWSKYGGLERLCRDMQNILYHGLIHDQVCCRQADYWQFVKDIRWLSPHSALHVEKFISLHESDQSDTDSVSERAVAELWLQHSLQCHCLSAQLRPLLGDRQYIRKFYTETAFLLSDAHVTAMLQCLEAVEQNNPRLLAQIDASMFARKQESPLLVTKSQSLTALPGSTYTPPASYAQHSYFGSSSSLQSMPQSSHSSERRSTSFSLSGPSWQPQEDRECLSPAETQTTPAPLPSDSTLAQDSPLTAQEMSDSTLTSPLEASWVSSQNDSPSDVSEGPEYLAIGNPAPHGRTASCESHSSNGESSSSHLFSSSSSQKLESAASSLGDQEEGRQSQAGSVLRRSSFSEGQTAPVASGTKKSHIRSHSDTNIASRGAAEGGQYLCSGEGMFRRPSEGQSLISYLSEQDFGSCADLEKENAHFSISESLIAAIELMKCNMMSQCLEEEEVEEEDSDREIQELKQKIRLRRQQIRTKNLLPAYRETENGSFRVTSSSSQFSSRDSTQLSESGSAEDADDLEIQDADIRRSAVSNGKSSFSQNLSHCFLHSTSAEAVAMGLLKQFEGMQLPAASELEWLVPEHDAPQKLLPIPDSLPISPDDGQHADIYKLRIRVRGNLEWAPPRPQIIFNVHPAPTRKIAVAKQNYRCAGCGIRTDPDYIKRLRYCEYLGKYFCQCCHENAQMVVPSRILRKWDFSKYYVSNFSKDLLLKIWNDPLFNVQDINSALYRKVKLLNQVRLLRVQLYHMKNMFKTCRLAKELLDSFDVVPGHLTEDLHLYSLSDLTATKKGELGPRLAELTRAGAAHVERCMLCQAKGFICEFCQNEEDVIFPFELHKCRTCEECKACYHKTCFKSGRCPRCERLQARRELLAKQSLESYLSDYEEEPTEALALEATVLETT

Amino acid sequences for entries named in this document (tags omitted). A change or cut given only in a name is not applied to a line headed by its entry.
UniProt Q14457: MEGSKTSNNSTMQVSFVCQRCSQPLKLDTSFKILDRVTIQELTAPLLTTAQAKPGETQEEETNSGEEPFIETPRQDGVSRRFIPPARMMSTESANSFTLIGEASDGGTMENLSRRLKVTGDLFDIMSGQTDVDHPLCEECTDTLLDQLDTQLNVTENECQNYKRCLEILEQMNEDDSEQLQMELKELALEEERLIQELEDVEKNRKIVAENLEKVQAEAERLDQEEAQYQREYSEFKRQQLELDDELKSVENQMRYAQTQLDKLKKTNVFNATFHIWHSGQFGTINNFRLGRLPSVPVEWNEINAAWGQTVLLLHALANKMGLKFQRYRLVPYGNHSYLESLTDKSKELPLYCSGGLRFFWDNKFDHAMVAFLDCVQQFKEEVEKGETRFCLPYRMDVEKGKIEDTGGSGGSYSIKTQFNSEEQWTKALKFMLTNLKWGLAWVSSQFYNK
UniProt Q8CDJ3: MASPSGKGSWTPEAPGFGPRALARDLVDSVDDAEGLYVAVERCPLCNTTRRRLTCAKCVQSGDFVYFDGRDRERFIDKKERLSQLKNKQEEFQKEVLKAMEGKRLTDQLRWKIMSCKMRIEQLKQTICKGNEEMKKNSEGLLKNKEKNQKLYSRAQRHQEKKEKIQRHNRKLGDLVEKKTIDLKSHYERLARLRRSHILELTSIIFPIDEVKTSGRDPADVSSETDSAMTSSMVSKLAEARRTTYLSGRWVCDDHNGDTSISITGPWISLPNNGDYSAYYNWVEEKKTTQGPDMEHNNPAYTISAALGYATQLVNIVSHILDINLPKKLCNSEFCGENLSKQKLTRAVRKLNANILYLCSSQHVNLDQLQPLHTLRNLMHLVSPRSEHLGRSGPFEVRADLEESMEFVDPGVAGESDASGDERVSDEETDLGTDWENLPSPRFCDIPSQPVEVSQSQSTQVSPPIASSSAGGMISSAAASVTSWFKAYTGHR
UniProt O88597: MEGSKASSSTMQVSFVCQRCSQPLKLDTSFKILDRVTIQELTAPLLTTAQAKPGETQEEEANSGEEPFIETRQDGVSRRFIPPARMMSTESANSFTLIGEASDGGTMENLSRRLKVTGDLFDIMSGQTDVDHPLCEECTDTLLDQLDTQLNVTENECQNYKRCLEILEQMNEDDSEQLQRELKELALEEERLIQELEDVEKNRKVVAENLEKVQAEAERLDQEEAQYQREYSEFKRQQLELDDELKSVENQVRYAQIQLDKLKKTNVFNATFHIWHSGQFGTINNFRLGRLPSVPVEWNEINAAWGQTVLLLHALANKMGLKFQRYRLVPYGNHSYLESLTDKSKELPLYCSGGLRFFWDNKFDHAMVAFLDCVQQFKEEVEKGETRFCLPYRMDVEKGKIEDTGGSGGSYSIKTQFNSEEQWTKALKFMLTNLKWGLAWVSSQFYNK

[4] = biological target: T1, Rubicon-EGFP (full-length mouse Rubicon tagged with EGFP at the C-terminus) (mouse); assay: refers to the co-IP of FIG. 2

Row | Substance | binding [1] | binding [2] | binding [3] | binding [4]
1 | ATG14L ΔCCD1 mutant, EGFP-tagged (deletion of the N-terminal CCD1) (from UniProt Q8CDJ3 99-492) | binds | binds |  | 
2 | FLAG-Beclin 1-CE (FLAG-tagged Beclin 1 mutant containing coiled-coil and evolutionarily conserved domains) (from UniProt O88597 144-448) |  |  | binds | binds
